From paper PMC12737465 come the findings set out here.

No constants are given. Whether binding was seen depends on the method and setting. Binding calls can cover weak binding; strength is not graded here. Tags and fused reporters may be left off the sequences shown.

The target of this assay is trichosanthin (TCS), recombinant with hexa-histidine tag (Trichosanthes kirilowii). The experiment in a line: pull-down; 50 ug His-tagged MAP-EQRQ or TCS mixed with 50 ug GST-stalk in 1 mL 10 mM Tris-HCl pH 7.5, 150 mM NaCl, 30 min on ice; trapped on Ni-NTA-agarose via the hexa-histidine tag, washed (20 mM imidazole), eluted with 500 mM imidazole, SDS-PAGE; both purified.

B1: glutathione S-transferase (GST) fused human P2-stalk C-terminal peptide, 17 aa (peptide)
chain: KEESEESDDDMGFGLFD
As for B1, the binding entry is “binds”.

B2: glutathione S-transferase (GST) fused human P2-stalk C-terminal peptide, 11 aa (peptide)
chain: SDDDMGFGLFD
For the molecule B2, the binding result is “binds”.

B3: glutathione S-transferase (GST) fused E. coli stalk L12 C-terminal domain, 74 aa (domain or fragment)
chain: AAEEKTEFDVILKAAGANKVAVIKAVRGATGLGLKEAKDLVESAPAALKEGVSKDDAEALKKALEEAGAEVEVK
Take B3: the binding result was “no binding (tested: 50 ug of each protein in 1 mL)”.
